Publication PMC12706091
Results are given in words; binding and its absence hold for the method and conditions named. In cells and extracts the contact can be indirect. Some entries that bind do so weakly or less than the wild type. Tags and fused reporters may be left off the sequences shown. One block for each binder: values may come before it.

Columns and labels:
GST-TIA1 = biological target: T1, GST-TIA1 (UniProt P31483); experiment: pull-down; purified GST fusion added to P14 rat cortical lysate in RIPA buffer, 4 °C, captured on glutathione resin, NP40 wash buffer; western blot; only the target purified
T1 sequence: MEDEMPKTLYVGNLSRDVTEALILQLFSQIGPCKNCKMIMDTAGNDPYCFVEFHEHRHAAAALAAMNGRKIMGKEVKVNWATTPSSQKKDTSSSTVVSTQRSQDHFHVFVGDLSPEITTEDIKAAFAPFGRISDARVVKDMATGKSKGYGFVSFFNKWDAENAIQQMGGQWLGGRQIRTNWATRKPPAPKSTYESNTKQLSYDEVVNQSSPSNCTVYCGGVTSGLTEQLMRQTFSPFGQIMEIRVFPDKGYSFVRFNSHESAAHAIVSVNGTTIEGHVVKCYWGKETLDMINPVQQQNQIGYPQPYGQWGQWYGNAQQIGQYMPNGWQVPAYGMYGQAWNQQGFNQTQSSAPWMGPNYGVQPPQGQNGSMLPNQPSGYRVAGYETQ

[1] = biological target: T2, HA-TIA1 (expressed in HEK293T) (UniProt P31483); experiment: co-IP; HEK293T co-transfected, NP40 lysis buffer, anti-Flag M2 or anti-HA beads, 3 h at 4 °C, wash with 300 mM NaCl; with or without overexpressed Myc-ANXA7
T2 sequence: T1 sequence

binding (GST-TIA1): binds
B1: Annexin A7 (ANXA7), endogenous (protein, UniProt Q6IRJ7 1-485)
chain: MSYPGYPPTGYPPFPGYPPAGQESSFPTSGQYPYPSGFPPMGGGAYPPAPSGGYPGAGGYPSPGGYPAPGGYPGTLNPGGPPSYPGGQGFGAPPGGAGFSGYPQPPAQSYGGGPAQVPVPGGFPGGQMPSQYPGGQSPYPGQIDTESFSSYPAFSPVSLDYSSDPAAMTQGTQGTIRPASNFDAMRDAEILRKAMKGFGTDEQAIVDVVSNRSNDQRQQIKAAFKTMYGKDLIKDLKSELSGNMEELILALFMPPTYYDAWSLRKAIQGAGTQERVLIEILCTRTNQEIRDIVRCYQLEFGRELERDIRSDTSGHFERLLVSMCQGNRDESPSINHQMAQEDAQRLYQAGEGRLGTDESCFNMILATRSFPQLRATMEAYSRMANRDLLSSVSREFSGYVESGLKTILQCALNRPAFFAERLYYSMKGAGTDDSTLVRIVVTRSEIDLVQIKQMFTQMYQKTLSTMIASDTSGDYRKLLLAIVGQ

binding [1]: binds
B2: Myc-ANXA7 (expressed in HEK293T) (protein, UniProt Q6IRJ7 1-485)
chain: B1 chain
